The values below come from PubChem BioAssay AID493014 (National Center for Advancing Translational Sciences (NCATS), 2011).

The nature of this assay: qHTS Assay to Find Inhibitors of Chronic Active B-Cell Receptor Signaling. The conditions noted are these: ABC-DLBCL IkBa-CBG/CBR reporter, luminescence ratio (green luciferase fused to IkBa over red control in TMD8 lymphoma cells), 4 h. The gist of the method: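 Compounds up to 46 uM were incubated four hours with TMD8 cells whose green CBG68 luciferase is fused to IkappaBalpha; red CBR luminescence normalised the signal, and concentration-effect curves were fitted to fusion, red and ratio data.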

The mark [1] stands for this setting: measured here: CBR red luminescence, cell number.
The mark [2] stands for this setting: measured here: IkBa-CBG green luminescence.

Structures are written as SMILES. The list shows a part of the results. Further columns of the screen follow, without active or inactive calls. The list favours compounds with an active or inconclusive main result. Potencies come from curve fits of mixed quality, noted in brackets.

A word on the AC50: it is the concentration at which the activity in the assay is half-maximal.

Regarding `CCOC(=O)c1ccc(-n2c(-c3ccco3)nc3ccccc3c2=O)cc1`, the concentration at half-maximal activity (AC50) under setting [1] is 35.5 µM [rising, single point].

`C=CCC1(N(C(C)=O)c2ccccc2C)CCCCC1`: the half-maximal activity concentration (AC50) under setting [1] was 35.5 µM [falling, single point].

On to `O=Nc1c2cc(-c3ccccc3)[nH]nc-2c2ccccc12`, for which the AC50 under setting [1] was 1.26 µM [falling, partial curve, poor fit].

On to `CCN(CC(N)=O)S(=O)(=O)c1ccc(Br)cc1`, for which, under setting [1], the AC50 is 7.31 µM [rising, partial curve, poor fit].

On to `COC(=O)c1ccc(C(=O)OC)c(-n2c(=O)c3ccccc3c3ccccc3c2=O)c1`, for which, under setting [1], the concentration at half-maximal activity (AC50) was 4.11 µM [falling, partial curve, poor fit].

Turning to `Cc1ccc(N2C(=O)SC(N(CC(=O)O)c3cccc(C)c3)C2=O)cc1` (configuration not stated), the AC50 under setting [1] was 7.08 µM [falling, partial curve].

Take `C/C(=N\NC(=O)c1ccc(O)cc1)c1ccc2c(c1)OCCO2`: under setting [1], the AC50 is 2.06 µM [falling, partial curve].

Consider `COc1cccc(NC(=O)C(=O)c2cn(CC(=O)N3CCOCC3)c3ccccc23)c1`, for which, under setting [1], the half-maximal activity concentration (AC50) is 0.398 µM [falling, full curve].

Take `COc1ccc(CCNC(=O)c2noc(C(C)C)c2[N+](=O)[O-])cc1OC`: under setting [1], the AC50 was 22.4 µM [rising, single point].

As to `CC(=O)Oc1ccc2c(=O)c(-c3ccccc3)coc2c1`, the AC50 under setting [2] is 5.01 µM [rising, partial curve, poor fit].

In the case of `COc1ccc(-c2cc3ccc(OCC(=O)NCC4CCC(C(=O)O)CC4)cc3oc2=O)cc1` (configuration not stated), the concentration at half-maximal activity (AC50) under setting [1] was 0.891 µM [falling, partial curve, poor fit].

Take `Cc1cnc(NC(=O)c2cccc(S(=O)(=O)N3CCOCC3)c2)s1`: under setting [1], the AC50 was 23.1 µM [falling, partial curve, poor fit].

Take `CCOC(=O)c1c(C)[nH]c(C(=O)OCC(=O)NCc2ccc(F)cc2)c1C`: under setting [1], the AC50 is 14.6 µM [rising, partial curve, poor fit].

In the case of `CN(C(=O)c1cccc(NC(=O)c2cccs2)c1)c1ccccc1`, the AC50 under setting [1] was 6.31 µM [falling, single point].

In the case of `COc1ccc(-c2noc(-c3ccccc3Cl)n2)cc1OC`, the AC50 under setting [1] was 0.259 µM [rising, full curve, poor fit].

On to `c1csc(-c2nc(-c3ccc(-c4ccon4)s3)no2)c1`, for which the AC50 under setting [1] was 17.8 µM [falling, single point].

For the compound `COc1ccc(-c2csc(NC(=O)c3cccs3)c2C(=O)O)cc1OC`, the AC50 under setting [1] was 0.708 µM [falling, partial curve, poor fit].

Take `Cc1ccc(C(=O)Nc2ccc(C)c(S(=O)(=O)Nc3ccccc3Cl)c2)s1`: the AC50 under setting [1] was 20.6 µM [falling, single point].

Consider `c1cncc(CSc2nnc3ccc(-c4cccs4)nn23)c1`, for which the AC50 under setting [1] is 35.5 µM [falling, single point].

With `NS(=O)(=O)c1cc(C(=O)N=Nc2c(O)[nH]c3ccccc23)ccc1Cl`, the concentration at half-maximal activity (AC50) under setting [1] was 1.12 µM [falling, full curve].

Turning to `Cc1ccccc1NC(=S)NC(=O)Cc1ccc(Cl)cc1`, under setting [1], the AC50 was 28.2 µM [falling, single point].

As to `O=C(Nc1nc2ccccc2s1)c1cc2c(s1)-c1ccccc1OC2`, under setting [1], the AC50 was 6.51 µM [rising, partial curve, poor fit].

Turning to `CC(C)CC(=O)NC(=S)Nc1ccc(N2CCCC2)c(Cl)c1`, the AC50 under setting [1] was 14.1 µM [rising, single point].

With `Nc1ccc(C(=O)O)cc1`, under setting [1], the AC50 was 2.59 µM [rising, full curve].

As to `COc1cccc(-c2cnc(NCc3cc(Cl)ccc3O)n2C)c1`, the AC50 under setting [1] was 8.91 µM [falling, partial curve, poor fit].

`Nc1cc(Cl)ccc1C(=O)OCC(=O)NCc1cccs1`: the AC50 under setting [1] is 14.6 µM [falling, single point].

Take `CCOC(=O)c1cnn2c(C)cc(-c3ccccc3)nc12`: the AC50 under setting [1] is 29.1 µM [falling, single point].

As for `Cc1ccc(O)c(NC2=C(Cl)C(=O)N(Cc3ccccc3)C2=O)c1`, the AC50 under setting [1] was 35.5 µM [falling, single point].

On to `O=C(Nc1n[nH]c(=S)s1)c1ccc2ccccc2c1`, for which the AC50 under setting [1] is 0.891 µM [falling, full curve, poor fit].

Turning to `COc1cccc(NC(=O)Cn2cnc3sc(C)c(S(=O)(=O)N4CCCCC4)c3c2=O)c1`, under setting [1], the AC50 is 2.06 µM [falling, full curve].

For the compound `CCCCCC(=O)Nc1nc2ccccc2[nH]1`, the AC50 under setting [1] is 18.4 µM [falling, partial curve].

With `COc1ccc2c(c1)OC13CCCCC1C2C(C(=O)c1ccccc1)C(=O)N3` (configuration not stated), the AC50 under setting [1] was 18.4 µM [rising, single point].

As for `N#Cc1nc(-c2ccc(OCc3ccccc3)cc2)oc1NCc1cccnc1`, under setting [1], the AC50 is 1.41 µM [rising, full curve].

For the compound `CCCCCOCC1CC(C/C(C)=N/NC(N)=S)C(=O)O1` (configuration not stated), the AC50 under setting [1] is 29.1 µM [falling, single point].

In the case of `Cc1c(C(=O)N2CCN(C(=O)c3ccccc3)CC2)oc2ccc(F)cc12`, the AC50 under setting [1] was 1.46 µM [rising, partial curve].

Turning to `C/C(O)=c1/cnc2nc3ccccc3n2c1=O`, the AC50 under setting [1] is 14.1 µM [falling, single point].

As for `COc1ccc(S(=O)(=O)N2CCOC2CNC(=O)C(=O)NCc2ccncc2)cc1OC` (configuration not stated), the AC50 under setting [1] is 17.8 µM [rising, partial curve, poor fit].

As to `CCc1ccc(C(C(=O)NC2CCCC2)N(C(=O)c2csnn2)C2CC2)cc1` (configuration not stated), the AC50 under setting [1] was 0.0891 µM [rising, full curve, poor fit].

Take `CC(=O)OCCCn1c(C)[n+](C)c2cc(Cl)c(Cl)cc21`: the AC50 under setting [1] is 3.98 µM [rising, full curve, poor fit].

With `Cc1ccccc1-c1ncc(CN2CCN(C3CCCCC3)C(CCO)C2)cn1` (configuration not stated), the AC50 under setting [1] was 12.6 µM [rising, partial curve, poor fit].

With `C=CCN(CC=C)C(=S)NC(=O)c1ccc(-c2ccccc2)cc1`, the AC50 under setting [1] is 29.1 µM [rising, single point].

Turning to `C/C(CC(=O)Nc1ccc(C)c(Cl)c1)=N\NC(=O)c1ccccn1`, the AC50 under setting [1] was 7.94 µM [falling, partial curve].

On to `Cc1ccccc1OCC(=O)Nc1cccc(NC(=O)c2ccco2)c1`, for which the AC50 under setting [1] was 0.562 µM [falling, full curve, poor fit].

As to `O=C(O)CCc1cccnc1`, the AC50 under setting [1] was 12.6 µM [falling, partial curve].

Take `COc1ccc(/C=C/c2noc(-c3ccccc3OC(C)=O)n2)cc1`: the concentration at half-maximal activity (AC50) under setting [1] is 7.94 µM [falling, partial curve].

As for `O=C(Nc1ccc([N+](=O)[O-])cn1)C1CCCCC1`, under setting [1], the AC50 was 18.4 µM [falling, partial curve].

For `COc1cccc(Nc2nc(-c3cccs3)nc3ccccc23)c1`, the AC50 under setting [2] is 16.4 µM [rising, partial curve, poor fit].

In the case of `COc1cccc(/C=N/NC(=O)N/N=C/c2cccc(OC)c2O)c1O`, the AC50 under setting [1] was 8.91 µM [falling, partial curve, poor fit].

As for `O=C(Nc1ccccc1)OCCOc1ccc(Br)cc1`, the AC50 under setting [1] is 10 µM [rising, partial curve].

As to `CC(C)N(C(=O)c1ccc(-c2ccccc2F)cc1)C(C)C`, under setting [1], the half-maximal activity concentration (AC50) was 7.08 µM [falling, partial curve, poor fit].

For the compound `O=C(Nc1ccc(SC(F)F)cc1)C1=CC=CN2CCS(=O)(=O)N=C12`, under setting [1], the half-maximal activity concentration (AC50) was 0.411 µM [rising, full curve, poor fit].

Regarding `Cc1ccccc1-c1cc(C(=O)NCc2ccco2)nn1CC1CC(c2cccc([N+](=O)[O-])c2)=NO1` (configuration not stated), the AC50 under setting [1] was 25.9 µM [falling, single point].

As to `O=C(Nc1nc2cc3c(cc2s1)OCO3)c1ccco1`, under setting [1], the AC50 is 1 µM [falling, full curve, poor fit].

`O=C(CN1C=NS(=O)(=O)c2ccccc21)Nc1ccc(Br)cc1`: the AC50 under setting [1] is 3.55 µM [falling, partial curve, poor fit].

With `OC(CN1CCN(c2ccc(C(F)(F)F)cn2)CC1)c1ccccc1` (configuration not stated), under setting [1], the AC50 is 1.26 µM [rising, full curve, poor fit].

`O=[N+]([O-])c1ccc(-c2cn(-c3ccccc3)c(=S)[nH]2)cc1`: the AC50 under setting [1] was 9.2 µM [rising, partial curve, poor fit].

Turning to `O=S(=O)(c1ccccc1)c1cccc(S(=O)(=O)N2CCCCC2)c1`, the concentration at half-maximal activity (AC50) under setting [1] was 0.259 µM [falling, full curve, poor fit].

Turning to `O=C(O)CSc1cc(NS(=O)(=O)c2cccc([N+](=O)[O-])c2)c2ccccc2c1O`, the AC50 under setting [1] is 28.2 µM [falling, single point].

`O=C(Nc1ccc(Cl)cc1)c1ccc2ncsc2c1`: the AC50 under setting [1] is 35.5 µM [falling, single point].

Regarding `CC(CC(=O)Nc1nc2ccccc2[nH]1)c1ccccc1` (configuration not stated), the AC50 under setting [1] is 3.66 µM [falling, partial curve, poor fit].

On to `CCc1ccc2nc(N=C(N)N)nc(C)c2c1`, for which the concentration at half-maximal activity (AC50) under setting [1] was 0.501 µM [rising, full curve, poor fit].

`Cc1ccc(NS(=O)(=O)c2ccccc2)c2c1CC(C)(C)O2`: under setting [1], the AC50 is 29.1 µM [rising, single point].

Turning to `NCCCCCc1nnc(SCc2ccc(Cl)cc2Cl)o1`, the half-maximal activity concentration (AC50) under setting [1] is 11.2 µM [falling, single point].

Turning to `N#Cc1cc(-c2ccccc2)[nH]c1-c1nccc2ccccc12`, the AC50 under setting [1] is 35.5 µM [falling, single point].

Regarding `N#CN=C1SCCS1`, the AC50 under setting [1] is 28.2 µM [rising, partial curve, poor fit].

In the case of `NCCCC[C@H]1CNC(=S)N1CCc1cccc(F)c1`, the AC50 under setting [1] is 4.47 µM [falling, partial curve, poor fit].

On to `CC(C)CC(=O)Nc1nc2ccc(S(C)(=O)=O)cc2s1`, for which the AC50 under setting [1] is 35.5 µM [rising, single point].
